For the assay, the target named is human TNFR1 (human p55 TNF receptor) (human) (UniProt P19438). In words: SPR on biotinylated TNFR1, competition with chimeric TNFR1.

By UniProt entry, the sequences of proteins in these tests, tags left out. Where a name states a change or a piece, a line headed by the entry shows the natural chain unless it says otherwise.
UniProt P19438: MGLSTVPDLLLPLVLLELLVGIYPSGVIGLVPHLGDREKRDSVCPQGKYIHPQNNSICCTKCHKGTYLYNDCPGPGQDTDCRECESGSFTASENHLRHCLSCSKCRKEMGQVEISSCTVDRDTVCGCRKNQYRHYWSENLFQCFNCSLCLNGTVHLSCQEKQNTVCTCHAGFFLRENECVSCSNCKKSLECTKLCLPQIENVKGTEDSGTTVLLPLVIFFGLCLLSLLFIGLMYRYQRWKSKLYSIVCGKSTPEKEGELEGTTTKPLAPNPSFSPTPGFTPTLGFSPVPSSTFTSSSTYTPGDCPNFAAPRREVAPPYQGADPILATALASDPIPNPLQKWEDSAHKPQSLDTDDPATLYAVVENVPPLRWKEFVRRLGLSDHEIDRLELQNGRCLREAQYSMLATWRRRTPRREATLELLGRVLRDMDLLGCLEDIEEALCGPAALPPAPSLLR

No constants are given. Whether binding was seen depends on the method and setting. Some binding calls cover weakened binding; strength is not graded here.

B1: TAR2h-185-25 (protein)
chain: EVQLLESGGGLVQPGGSLRLSCAASGFTFARYNMGWVRQAPGKGLEWVSLIDPSGGHTYYADSVKGRFTISRNNSKNTLYLQMNSLRAEDTAVYYCGKPVFSDWPAVEFDYWGQGTVVTVSS
On to B1, for which the binding entry is “binds”.

B2: TAR2h-154-10 (protein)
chain: EVQLLESGGGMVQPGGSLRLSCAASGFTFEHEGMVWVRQAPGKGLEWVSHIGEDGQSTYYADSVKGRFTISRDNSKNTLYLQMNSLRAEDTAVYYCANIPKAGPSFDYWGQGTLVTVSS
For B2, the binding result is “binds”.

The record behind these values is patent US20130022605A1.
